Assay results reported in article PMC7819943, “Rice protein-binding microarrays: a tool to detect cis-acting elements near promoter regions in rice”.
The other results are listed elsewhere or left out.

The sequences below were run against T1, OsSMF1 (Oryza sativa, UniProt Q6ZLB0 1-436) (assay: protein-binding microarray (RPBM); PBS, 2% BSA, 51.3 ng/ul salmon testes DNA, 50 uM zinc acetate, 200 nM TF, 25 C, 1 h; high values mean tight binding). Conditions: protein: recombinant; tags: N-terminal polyhistidine and DsRed monomer fusion (pET32a); chain copies: 2; label: CyDye5-dUTP incorporated in the synthesized complementary strand; 3' TTTTT single-stranded linker to array surface; dsDNA, one strand shown.
T1 sequence: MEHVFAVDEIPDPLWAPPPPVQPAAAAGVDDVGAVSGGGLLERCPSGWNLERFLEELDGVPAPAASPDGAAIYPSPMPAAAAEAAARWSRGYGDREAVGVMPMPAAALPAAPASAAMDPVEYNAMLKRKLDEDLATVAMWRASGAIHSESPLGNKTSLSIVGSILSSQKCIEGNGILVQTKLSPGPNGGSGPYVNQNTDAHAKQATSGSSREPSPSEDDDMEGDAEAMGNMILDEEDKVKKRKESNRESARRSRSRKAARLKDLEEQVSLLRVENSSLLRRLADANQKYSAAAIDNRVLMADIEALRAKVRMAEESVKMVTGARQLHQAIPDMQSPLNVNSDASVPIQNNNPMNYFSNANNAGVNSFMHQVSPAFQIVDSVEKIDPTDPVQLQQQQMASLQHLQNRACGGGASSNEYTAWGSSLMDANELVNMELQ
Summary of the method: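 An Axon 4000B scanner gave the binding signal as per-feature fluorescence intensity in arbitrary units. This followed washing of a custom Agilent array that had been incubated for 1 h at 25 °C with 200 nM protein in PBS, 2% BSA, salmon testes DNA and 50 µM zinc acetate. The proteins were transcription factors fused at the N-terminus to polyhistidine and DsRed, expressed in E. coli BL21-CodonPlus and purified on Ni–NTA.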

| Sequence | binding signal |
| --- | --- |
| GTTCCTGAAAGAAAACAAAACAAAAGAGCCACCTGGAACGCGGAGTCACCTAGTGCAG | 3190 fluorescence intensity (a.u.) |
| AATAGGGAAGCCCCACGTGTGTTAATTGTCATCGATTTCCCGGAGTCACCTAGTGCAG | 7780 fluorescence intensity (a.u.) |
| AGTTACCCCTACAAGTTAAGGATGCTGTCATCTCATCCTTCGGAGTCACCTAGTGCAG | 3390 fluorescence intensity (a.u.) |
| GGCATTGATATCTGCTGGCCCATTCGGTTGACGGGTGACTCGGAGTCACCTAGTGCAG | 3150 fluorescence intensity (a.u.) |
| GTCCCTCGCGCCGTCACCACCTGCTCTGTCTCCTCTCCTTCGGAGTCACCTAGTGCAG | 4060 fluorescence intensity (a.u.) |
| TTTGTGAAGTGATATATTACATATTAACCTAGAAGTCCACCGGAGTCACCTAGTGCAG | 26800 fluorescence intensity (a.u.) |
| CCTTGTTGATATATTTTAAGGTGTATGGTTTCTATTTTAACGGAGTCACCTAGTGCAG | 3650 fluorescence intensity (a.u.) |
| TTAGATCGGGGAATAAGGTGGTAACAGGGCAGTGCGGTCCCGGAGTCACCTAGTGCAG | 3500 fluorescence intensity (a.u.) |
| CTCGTCCGCGACCACGACCACGACCACGACACGACGAGCTCGGAGTCACCTAGTGCAG | 3320 fluorescence intensity (a.u.) |
| CTGTAATTTATTTTAATATCATCAAGACACATCAGCAACACGGAGTCACCTAGTGCAG | 9520 fluorescence intensity (a.u.) |
| TTATTAGCAACCACCGTCACATATAAATTAATATGTGCCGCGGAGTCACCTAGTGCAG | 3710 fluorescence intensity (a.u.) |
| TAAACGCAAATTCTATATCACAACCACGTAAGTTTAGTAGCGGAGTCACCTAGTGCAG | 3870 fluorescence intensity (a.u.) |
| CATCTCCCTCCACCTCGACCCGCCGCCGGTCTCCTCTTGTCGGAGTCACCTAGTGCAG | 4200 fluorescence intensity (a.u.) |
| ATTCTTGAATGGCTGCTAGCTTCTCCATCAAAAGAGGCCACGGAGTCACCTAGTGCAG | 24600 fluorescence intensity (a.u.) |
| GTCCAGCTCGGCCGCGGCGGCTACGTCCACCGCCGTCGCCCGGAGTCACCTAGTGCAG | 19700 fluorescence intensity (a.u.) |
| ATATTATGAAATGGCACGTAGCATAGTGGTTGCAGTGATCCGGAGTCACCTAGTGCAG | 4620 fluorescence intensity (a.u.) |
| TTGGTTTTGGAAGTTGAGTAACGCGTCATTTAGGTATTGCCGGAGTCACCTAGTGCAG | 5530 fluorescence intensity (a.u.) |
| TGTGCACGTCAGTCTGACGCCTCAATCCTTCCCGTGCACACGGAGTCACCTAGTGCAG | 8700 fluorescence intensity (a.u.) |
| CCTCCACGATTCGCTCCAGCGCCATGTGACTAGACCGAGCCGGAGTCACCTAGTGCAG | 5700 fluorescence intensity (a.u.) |
| GCAGATAATTGACTCCCCTGGCATTGACATGGCCTTCCCACGGAGTCACCTAGTGCAG | 6140 fluorescence intensity (a.u.) |
| TGATGGATTAGAGTTTACATTGCGTGGATGCAAGCATAGACGGAGTCACCTAGTGCAG | 3640 fluorescence intensity (a.u.) |

As entered above.
TTGGTTTTGGAAGTTGAGTAACGCGTCATTTAGGTATTGCCGGAGTCACCTAGTGCAG | binding signal: 5530 fluorescence intensity (a.u.)
CATCTCCCTCCACCTCGACCCGCCGCCGGTCTCCTCTTGTCGGAGTCACCTAGTGCAG | binding signal: 4200 fluorescence intensity (a.u.)

Additional records:

| Sequence | binding signal |
| --- | --- |
| GGCAACAACGGCCTCCACCGCCATCACTCCGGCACCCTCACGGAGTCACCTAGTGCAG | 52200 fluorescence intensity (a.u.) |
| TCCTTCCTACCCACGGCCGACTCCCCTCCTCGTCACCACGCGGAGTCACCTAGTGCAG | 4400 fluorescence intensity (a.u.) |
| CAAAGCGCATCTGAGGAGGTAGGCCCCACCAATGACATGTCGGAGTCACCTAGTGCAG | 3650 fluorescence intensity (a.u.) |
| CTCCCAGCCTTTTGCTGATCGGTGGGCCTAGTTGCCCGAGCGGAGTCACCTAGTGCAG | 15500 fluorescence intensity (a.u.) |
| AGCAGCAGAGCGTGCCACACTGCCACGCACACAAGCACAACGGAGTCACCTAGTGCAG | 6160 fluorescence intensity (a.u.) |
| CTTGTATAGCTGAGCCGTGGCAAGCAGACCCAACACCTGACGGAGTCACCTAGTGCAG | 3980 fluorescence intensity (a.u.) |
| GGGCGTCGGTGATGTGCCAGTGGAAGACATTGAGCTTGTTCGGAGTCACCTAGTGCAG | 3360 fluorescence intensity (a.u.) |
| CCCAGCCACCGCCGGCGAAATCCCGGAAGACGTCACACCACGGAGTCACCTAGTGCAG | 5090 fluorescence intensity (a.u.) |
| AATACCTGATGTGACACGCCAAAACTTTACACCCCTGGATCGGAGTCACCTAGTGCAG | 4210 fluorescence intensity (a.u.) |
| CACTCTCTCTCCCCATGCCACCAATCTTCGAACGGGCTGACGGAGTCACCTAGTGCAG | 3490 fluorescence intensity (a.u.) |
| TAACTGATTTGACTCGTGCGTACACGCATCGCAGTGACAACGGAGTCACCTAGTGCAG | 3430 fluorescence intensity (a.u.) |
| AGGTCCCAAATTGACACATCCCCTCTAGAATCCTACGTATCGGAGTCACCTAGTGCAG | 3150 fluorescence intensity (a.u.) |
| ATTCGTGCCGGGACACGTGTCACGCAGGGAAGTGAAGTCCCGGAGTCACCTAGTGCAG | 14800 fluorescence intensity (a.u.) |
| GGTTGAACTGAATCATATCAAAGCCAGGTCAACACAGAAACGGAGTCACCTAGTGCAG | 3810 fluorescence intensity (a.u.) |
| AGAAGCGCGCCGAGGAGGCCCGCTCGTTCAACCGCGCCGCCGGAGTCACCTAGTGCAG | 65500 fluorescence intensity (a.u.) |
| TTAGATGTGAAAATTTCGGCCACGTCTCTCCCTATACATACGGAGTCACCTAGTGCAG | 4800 fluorescence intensity (a.u.) |
| CCCCACAGCGCAGTGTCCCACGCGGCCAGCACGCACTCTCCGGAGTCACCTAGTGCAG | 3260 fluorescence intensity (a.u.) |
| TTCTAAATCGTAACCATTGTGTGTGTGTGTGGACATTTTCCGGAGTCACCTAGTGCAG | 3580 fluorescence intensity (a.u.) |
| GGAAGCAAACGAAGCCCAGAAATGACATGGCAAGCAGCTTCGGAGTCACCTAGTGCAG | 5130 fluorescence intensity (a.u.) |
| ATATGAGATATTTCATATGCTGTTTATTGCTGCTGCCAGACGGAGTCACCTAGTGCAG | 6080 fluorescence intensity (a.u.) |
| CTACGAAAGTGAAAAGGGTGTTTATTTTCACCACCCTAGGCGGAGTCACCTAGTGCAG | 4530 fluorescence intensity (a.u.) |
